# Not every detail of the peptide structures is certain; ends, links or a residue may be inferred. Some entries repeat one wording, which the source may state once for all of them. Where no end group is shown, it is not given here.
# Assays:
# [1] = tested on: EpiAirway™ Cell Membrane (mucosal epithelial cell layer); assay: Transepithelial electrical resistance (TER) assay in EpiAirway Cell Membrane; type: cell-based
# Protocol: The EpiAirway™ system was developed by MatTek Corp (Ashland, Mass.) as a model of the pseudostratified epithelium lining the respiratory tract. The epithelial cells are grown on porous membrane-bottomed cell culture inserts at an air-liquid interface, which results in differentiation of the cells to a highly polarized morphology. The apical surface is ciliated with a microvillous ultrastructure and the epithelium produces mucus (the presence of mucin has been confirmed by immunoblotting). The inserts have a diameter of 0.875 cm, providing a surface area of 0.6 cm^2. The cells are plated onto the inserts at the factory approximately three weeks before shipping. One “kit” consists of 24 units.
# A. On arrival, the units are placed onto sterile supports in 6-well microplates. Each well receives 5 mL of proprietary culture medium. […]
# A. A “kit” of 24 EpiAirway™ units can routinely be employed for evaluating five different formulations, each of which is applied to quadruplicate wells. Each well is employed for determination of permeation kinetics (4 time points), transepithelial electrical resistance (TER), mitochondrial reductase activity as measured by MTT reduction, and cytolysis as measured by release of LDH. […]
# D. Determinations of TER are made with 1.5 mL of PBS in the chamber and 350 μL of PBS in the membrane-bottomed unit being measured. […]
# [2] = tested on: EpiAirway™ Cell Membrane (mucosal epithelial cell layer); assay: Permeation kinetics of interferon-β across EpiAirway Cell Membrane by ELISA; type: cell-based; details: peptide 1.0 mM with interferon-β (60 MIU; 300 μg); compared to control
sequence,measurement,setting,value
YLYHYCVVD [NP-26],Average TER Value,"[1]; permeabilizing peptide 1.0 mM on EpiAirway Cell Membrane, each group of lines has its own CONTROL",291 ± 89 ohms-cm^2
same,TER % of Control,"[1]; permeabilizing peptide 1.0 mM, control normalized to 100, decrease = increased permeability",63.7%
same,"increase in permeation of the biologically active agent across EpiAirway Cell Membrane, ELISA",[2],significant increase

# Source: US20040077540A1, “Compositions and methods for modulating physiology of epithelial junctional adhesion molecules for enhanced mucosal delivery of therapeutic compounds” (Nastech Pharmaceutical Company Inc., priority 2002, published 2004)
